83 compounds from the supplement of paper PMC6289059 can be followed below.

“And” between values parts separate entries of the source, which are not always exact repeats. Equal entries are not always repeated. This is one part of the list. Single values are uncertain, as repeats are few or missing.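 The cells are hepatocyte-like cells grown from human stem cells in which the DGUOK gene was disrupted by CRISPR, a model of liver mtDNA depletion syndrome. Each well's ATP signal was scored against the other wells on its plate, and a drug counted as a primary hit when its score was 3 or higher.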

This test relates to DGUOK Δ14/Δ5 iPSC-derived hepatocyte-like cells (SV20). The experiment in a line: ATP level (CellTiter-Glo luminescence) Z score relative to plate distribution, under 2-DG glycolysis block; higher = more cellular ATP (rescue of mitochondrial ATP production). The following applies: 5 µM; treatment time: day 15 to day 20 of differentiation (5 days); 2-deoxy-D-glucose: 20 mM for 24 h before assay. Background: ATP-based viability assays read luminescence as a measure of living cells.
As for `COc1cc(OC)c2c(=O)c(OC)c(-c3ccccc3)oc2c1`, the ATP level was inactive: 1.01.
As to `C[C@@H]1C[C@H]2[C@@H]3CCC4=CC(=O)C=C[C@]4(C)[C@@]3(F)[C@@H](O)C[C@]2(C)[C@@]1(O)C(=O)CO`, the ATP level was inactive: 1.26.
On to `OC1(c2ccc(Cl)c(C(F)(F)F)c2)CCN(CCCC(c2ccc(F)cc2)c2ccc(F)cc2)CC1`, for which the ATP level is inactive: -0.338.
As for `O=C(O)COC(=O)Cc1ccccc1Nc1c(Cl)cccc1Cl`, the ATP level was inactive: -0.29.
Take `Cc1cnc(NC(=O)C2=C(O)c3ccccc3S(=O)(=O)N2C)s1`: the ATP level was inactive: 2.31.
Next, `O=C(O)CCCc1ccccc1`: inactive: 1.57 and inactive: 0.544; `NC1=NCCN1CC(=O)O`: inactive: -1.6.
Take `CC1(C)O[C@@H]2C[C@H]3[C@@H]4CCC5=CC(=O)C=C[C@]5(C)[C@@]4(F)[C@@H](O)C[C@]3(C)[C@]2(C(=O)CO)O1`: the ATP level is inactive: 2.4.
As to `C1CCN2C[C@@H]3C[C@@H](CN4CCCC[C@@H]34)[C@H]2C1`, the ATP level is inactive: -0.642.
In the case of `CC1CC(OC(=O)C(O)c2ccccc2)CC(C)(C)N1C` (stereo not drawn), the ATP level is inactive: 0.212.
The result for `Cc1nnc(NS(=O)(=O)c2ccc(N)cc2)s1` reads inactive: 1.16.
As to `COc1cc(NS(C)(=O)=O)ccc1Nc1c2ccccc2nc2ccccc12`, the ATP level is inactive: -30.5.
For the compound `CCN1CCN(c2cc3c(cc2F)c(=O)c(C(=O)O)cn3C2CC2)CC1`, the ATP level is inactive: -1.91.
For the compound `O=C1C2CC3CC1CC(O)(C3)C2`, the ATP level is inactive: 0.041.
With `C#CCCCCCCCCCCCc1ccco1`, the ATP level is inactive: -0.139.
Turning to `Oc1ccc(OCc2ccccc2)cc1`, the ATP level was inactive: -24.5.
Next, `C[C@H]1C[C@H]2[C@@H]3CCC4=CC(=O)C=C[C@]4(C)[C@@]3(F)[C@@H](O)C[C@]2(C)[C@@]1(O)C(=O)CO`: inactive: 1.73; `CC(C)C1=CC2=CC[C@@H]3[C@](C)(CCC[C@@]3(C)C(=O)O)[C@H]2CC1`: inactive: 2.05; `O=C(NCCO[N+](=O)[O-])c1cccnc1`: inactive: 1.05.
For `Cc1ccc(Cl)c(Nc2ccccc2C(=O)O)c1Cl`, the ATP level is inactive: 1.34.
For `CCN1CCN(C(=O)N[C@@H](C(=O)N[C@@H]2C(=O)N3C(C(=O)O)=C(CSc4nnnn4C)CS[C@H]23)c2ccc(O)cc2)C(=O)C1=O`, the ATP level is inactive: 2.08.
The result for `CN(C)CCOc1ccc(/C(=C(/CCCl)c2ccccc2)c2ccccc2)cc1` reads inactive: 1.28.
As to `CO[C@@]12[C@H](COC(N)=O)C3=C(C(=O)C(C)=C(N)C3=O)N1C[C@@H]1N[C@@H]12`, the ATP level is inactive: -14.5.
The result for `CC(C(=O)O)c1ccc(N2Cc3ccccc3C2=O)cc1` (stereo not drawn) reads inactive: 0.881; that for `CC1=Nc2ccc(Cl)cc2S(=O)(=O)N1`, inactive: -17.9.
The result for `CCOC(=O)CCCCCCCCCCCCC1C=CCC1` (stereo not drawn) reads inactive: -1.49; that for `O=c1c(-c2ccc(O)cc2)coc2c([C@@H]3O[C@H](CO)[C@@H](O)[C@H](O)[C@H]3O)c(O)ccc12`, inactive: -1.78; that for `Cc1cc(/C=C/c2ccc3cc(N(C)C)ccc3[n+]2C)c(C)n1-c1ccccc1`, inactive: -15.
For `O=C(O)C(S)C(S)C(=O)O` (stereo not drawn), the ATP level was inactive: -0.135.
Regarding `O=S1(=O)OC(c2ccc(O)cc2)(c2ccc(O)cc2)c2ccccc21`, the ATP level was inactive: -0.551.
Take `CC(C)=CCC/C(C)=C/CC/C(C)=C/CC/C(C)=C/CC/C(C)=C/CC/C(C)=C/CC/C(C)=C/CC/C(C)=C/CC/C(C)=C/CO`: the ATP level was inactive: 0.407.
For the compound `CCCCNc1ccc(C(=O)OCCOCCOCCOCCOCCOCCOCCOCCOCCOC)cc1`, the ATP level was active: 5.26.
With `CC(C)(Oc1ccc(C(=O)c2ccc(Cl)cc2)cc1)C(=O)O`, the ATP level is inactive: 1.38.
Take `COC(=O)CC[C@@H](C)[C@H]1CC[C@H]2[C@@H]3CC[C@@H]4C[C@H](O)CC[C@]4(C)[C@H]3C[C@H](O)[C@]12C`: the ATP level is inactive: 0.574.
As for `O=C(O[C@@H]1Cc2c(O)cc(O)cc2O[C@@H]1c1cc(O)c(=O)c2c(O)c(O)cc([C@H]3Oc4cc(O)cc(O)c4C[C@H]3O)c2c1)c1cc(O)c(O)c(O)c1`, the ATP level was inactive: 2.3.
The result for `CC1(C)CC[C@]2(C(=O)O)CC[C@]3(C)C(=CC[C@@H]4[C@@]5(C)CC[C@H](O)[C@@](C)(CO)[C@@H]5CC[C@]43C)[C@@H]2C1` reads inactive: 0.364.
In the case of `O=c1cc(-c2cccc(O)c2)oc2cc(O)ccc12`, the ATP level is inactive: -2.54.
Take `CNC(C)C1CCC(N)C(OC2C(N)CC(N)C(OC3OCC(C)(O)C(NC)C3O)C2O)O1` (stereo not drawn): the ATP level was inactive: 1.15.
On to `O=C1CC2(CCCC2)CC(=O)N1CCCCN1CCN(c2ncccn2)CC1`, for which the ATP level was inactive: -17.9.
`CC[C@H]1OC(=O)[C@H](C)[C@@H](O[C@H]2C[C@@](C)(OC)[C@@H](O)[C@H](C)O2)[C@H](C)[C@@H](O[C@@H]2O[C@H](C)C[C@H](N(C)C)[C@H]2O)[C@](C)(O)C[C@@H](C)[C@@H]2N[C@@H](COCCOC)O[C@H]([C@H]2C)[C@]1(C)O`: the ATP level is inactive: 1.75.
As to `CC(C)/C(O)=C1/C(=O)O[C@@H](c2ccoc2)[C@]2(C)C(O)[C@@H](O)[C@@]34OC5(C)OC67CC(C)(C(O)[C@]6(O)[C@@H](O)[C@]3(O5)C12)[C@H](CC(=O)O)[C@]74C` (stereo partly drawn), the ATP level was inactive: -3.54.
Turning to `CC(=O)OC1CC2CCC1(C)C2(C)C` (stereo not drawn), the ATP level was inactive: -0.705.
`O=c1cc[nH]c(=S)[nH]1`: the ATP level is inactive: 0.641.
Regarding `CCC(C(=O)O)c1ccccc1` (stereo not drawn), the ATP level is inactive: 2.46.
Take `CC(=O)O[C@@H]1CC2C(C)(C)C(=O)C3OC3[C@]2(C)C2CC[C@@]3(C)[C@H](c4ccoc4)OC(=O)C4OC43[C@@]21C` (stereo partly drawn): the ATP level is inactive: -6.55.
Consider `CO/N=C(\C(=O)N[C@@H]1C(=O)N2C(C(=O)O)=C(COC(N)=O)CS[C@H]12)c1ccco1`, for which the ATP level is inactive: -13.8.
With `O=C(NCC(O)CO)c1c(I)c(C(=O)NCC(O)CO)c(I)c(N(CCO)C(=O)CO)c1I` (stereo not drawn), the ATP level is inactive: 0.987.
On to `Nc1ccc(S(=O)(=O)Nc2ccnn2-c2ccccc2)cc1`, for which the ATP level is inactive: 0.798.
The result for `FC(F)(Cl)C(F)(F)Cl` reads inactive: -1.76.
The result for `CCC(=O)c1c(O)cc(O)cc1O` reads inactive: 1.2; that for `CC1Cc2ccccc2N1NC(=O)c1ccc(Cl)c(S(N)(=O)=O)c1` (stereo not drawn), inactive: 0.933.
Turning to `C[C@H](CCC(=O)O)[C@H]1CC[C@H]2[C@@H]3CC[C@@H]4C[C@H](O)CC[C@]4(C)[C@H]3C[C@H](O)[C@]12C`, the ATP level is inactive: 2.34.
Consider `Nc1ccc2cc3ccc(N)cc3nc2c1`, for which the ATP level is inactive: -3.81.
The result for `COc1ccc2cc(C(C)C(=O)O)ccc2c1` (stereo not drawn) reads inactive: 0.43; that for `COc1c(O)cccc1O`, inactive: -0.441; that for `COC(=O)CC[C@@H](C)[C@H]1CC[C@H]2[C@@H]3[C@H](O)C[C@@H]4C[C@H](O)CC[C@]4(C)[C@H]3C[C@H](O)[C@]12C`, inactive: 1.6.
Turning to `Cc1cc(CC(=O)O)n(C)c1C(=O)c1ccc(Cl)cc1`, the ATP level is inactive: 0.815.
Regarding `CC12CCC(CC1)C(C)(C)O2`, the ATP level is inactive: -0.802.
Consider `CC(=O)Nc1ncc([N+](=O)[O-])s1`, for which the ATP level was inactive: -0.606.
Next, `O=c1c(O)c(-c2ccccc2)oc2cc(O)ccc12`: inactive: 0.956; `OC[C@H]1O[C@@H](Oc2cc(O)cc(/C=C/c3ccc(O)cc3)c2)[C@H](O)[C@@H](O)[C@@H]1O`: inactive: -1.34; `O=c1c(O)c(-c2ccc(O)cc2O)oc2cc(O)cc(O)c12`: inactive: -0.122.
In the case of `COc1cc(-c2coc3cc(O[C@@H]4O[C@H](CO)[C@@H](O)[C@H](O)[C@H]4O)c(OC)c(O)c3c2=O)cc(O)c1OC`, the ATP level was inactive: -0.0154.
As for `Cc1c(O)c(=O)ccn1C`, the ATP level was inactive: 0.731.
The result for `c1ccc([C@H]2CN3CCSC3=N2)cc1` reads inactive: -4.35; that for `CCC(=O)O[C@]1(C(=O)CCl)[C@@H](C)C[C@H]2[C@@H]3CCC4=CC(=O)C=C[C@]4(C)[C@@]3(F)[C@@H](O)C[C@@]21C`, inactive: 1.63.
`O=C1C[C@@H](c2ccc(O)cc2)Oc2cc(O)cc(O)c21`: the ATP level was inactive: 1.03.
`O=C1OCCN1/N=C/c1ccc([N+](=O)[O-])o1`: the ATP level is active: 3.29.
As for `NC(=O)c1ccc([N+](=O)[O-])cc1Cl`, the ATP level is inactive: -25.
Turning to `CC(C)[C@H](N)C(=O)OCC(CO)OCn1cnc2c(=O)nc(N)[nH]c21` (stereo partly drawn), the ATP level is inactive: 0.692.
Turning to `O=C(/C=C/C(=O)Oc1ccccc1C(=O)O)Oc1ccccc1C(=O)O`, the ATP level is inactive: 1.99.
Consider `CC(=O)Oc1ccc2c(c1)CCC1C2CC[C@]2(C)C(=O)CCC12` (stereo partly drawn), for which the ATP level was inactive: -1.83.
Next, `CN(C)c1nc(N(C)C)nc(N(C)C)n1`: inactive: -4.59.
`CC(=O)O[C@@H]1C[C@@]23C[C@@]24CC[C@H](O[C@@H]2OC[C@@H](O)[C@H](O)[C@H]2O)C(C)(C)[C@@H]4CC[C@H]3[C@]2(C)C[C@@H]3O[C@]4(C[C@@H](C)[C@@H]3[C@@]12C)O[C@H](O)[C@@]1(C)O[C@@H]41`: the ATP level is inactive: -1.62.
Next, `CC(C)NCC(O)c1ccc2ccccc2c1` (stereo not drawn): inactive: -2.23.
Turning to `CC(=O)O[C@]1(C(C)=O)CC[C@H]2[C@@H]3C[C@H](C)C4=CC(=O)CC[C@]4(C)[C@H]3CC[C@@]21C`, the ATP level was inactive: -0.172.
`N[C@@H](Cc1ccccc1)C(=O)O`: the ATP level was inactive: 0.541.
The result for `O=C(O)c1cc(-c2ccccc2)nc2ccccc12` reads active: 4.5.
With `C[C@H]1C[C@@H]2[C@H]([C@@H](O)C[C@@]3(C)[C@H]2CC[C@]3(O)C(=O)CO)[C@@]2(C)C=CC(=O)C=C12`, the ATP level is inactive: 0.864.
In the case of `CCCNCC(O)COc1ccccc1C(=O)CCc1ccccc1` (stereo not drawn), the ATP level is inactive: -9.13.
On to `O=[N+]([O-])c1cccc2cn[nH]c12`, for which the ATP level was inactive: 1.67.
Consider `COc1ccccc1OCC(O)CN1CCN(CC(=O)Nc2c(C)cccc2C)CC1` (stereo not drawn), for which the ATP level is inactive: -3.86.
Next, `COc1cc([C@@H]2c3cc4c(cc3[C@@H](O[C@@H]3O[C@@H]5CO[C@@H](C)O[C@H]5[C@H](O)[C@H]3O)[C@H]3COC(=O)[C@H]23)OCO4)cc(OC)c1O`: inactive: 1.26.
